Data as given in PubChem BioAssay AID1224831 (NIAID, 2016)

- Assay: 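Retesting screen hits on the TLR4-driven TNF response with six separate siRNAs each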 (follow-up of hits)
- System: human THP-1 B5 monocytic leukaemia cells carrying a TNF promoter luciferase reporter, made macrophage-like with PMA
- Reagents: single siRNA against human genes, 50 nM
- Duration: about 68 h of knock-down, then 4 h LPS
- Conditions: LPS (Salmonella minnesota, TLR-grade) at 10 ng/ml for 4 h; PMA 5 ng/ml present during knock-down
- Measurement: 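TNF promoter reporter read as dual luciferase ratio after 4 h LPS, normalised per plate to its median, given as replicate mean robust z-score per siRNA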
- Direction: TNF reporter z-score: higher = stronger LPS-induced TNF reporter signal; z-score, median over gene's siRNAs: higher = stronger TNF reporter signal across the gene's siRNAs
- Active means: 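Two-sided call: reduced or raised TNF reporter signal counts as active once mean z reaches about -1 or below, or about 1.5 or above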
- Calls: active = changed TNF reporter (either direction); inactive = little change
Shown is a random part of about 3,500 reagents. 731 of all reagents (21%) were called active. 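Active means either lowered or raised reporter signal; the gene-median score did not drive the per-siRNA calls.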 Reagents against one gene are numbered here.

target gene,siRNA no.,"TNF reporter z-score, replicate mean","z-score, median over gene's siRNAs",activity call
TASOR,1,1.6,1.12,active
TASOR,2,1.12,1.12,inactive
TASOR,3,1.12,1.12,inactive
TASOR,4,1.78,1.12,active
TASOR,5,0.12,1.12,inactive
TASOR,6,-1.65,1.12,active
PLOD3,1,-0.01,0.08,inactive
PLOD3,2,-0.24,0.08,inactive
PLOD3,3,0.17,0.08,inactive
PLOD3,4,-0.75,0.08,inactive
PLOD3,5,1.09,0.08,inactive
PLOD3,6,0.29,0.08,inactive
PSMA6,1,-1.88,-1.67,active
PSMA6,2,-1.74,-1.67,active
PSMA6,3,-1.87,-1.67,active
PSMA6,4,-1.33,-1.67,active
PSMA6,5,-1.34,-1.67,active
PSMA6,6,-1.6,-1.67,active
CINP,1,0.16,0.195,inactive
CINP,2,0.23,0.195,inactive
CINP,3,-0.4,0.195,inactive
CINP,4,-0.2,0.195,inactive
CINP,5,1.03,0.195,inactive
CINP,6,2.74,0.195,active
CHD8,1,-0.32,2.5,inactive
CHD8,2,3.13,2.5,active
CHD8,3,1.86,2.5,active
CHD8,4,-0.37,2.5,inactive
CHD8,5,5.77,2.5,active
CHD8,6,7.14,2.5,active
PLPPR2,1,0.44,0.29,inactive
PLPPR2,2,0.15,0.29,inactive
PLPPR2,3,0.16,0.29,inactive
PLPPR2,4,0.4,0.29,inactive
PLPPR2,5,2.31,0.29,active
PLPPR2,6,0.18,0.29,inactive
